These are yes or no findings as the source states them, for the method shown.

One molecule from paper PMC4275181 can be followed below.

The target of this test is CYT-18 CTD (isolated C-terminal anticodon-binding domain of the N. crassa mtTyrRS) (Neurospora crassa) (UniProt P12063). The test is described as follows: SAXS; molecular weight from forward scattering I(0) against a bovine serum albumin standard; free protein at at least three concentrations in 100 mM KCl, 5 mM MgCl2, 10 mM Tris-HCl (pH 7.5), 5% glycerol; both purified.

B1: CYT-18 CTD (isolated C-terminal anticodon-binding domain of the N. crassa mtTyrRS) (domain or fragment, UniProt P12063 448-583)
chain: GTLNNAPRIDMILPESLIMGKSIGRILYAAGLASSTTEGHKLAAAQGCYVGGAHRAGGENVTMNPDLISFMPVKLWFPGETQRYLINGNLLILRKGKHNVRVIQMVSDVEYAASGQTYPGQSFTGAVRKLNEIMKNL
For B1, the binding result is given as “no binding”.
